Results published in PMC10894303.

Protein sequences, listed by entry. Tags and fused reporters are not part of them.
UniProt Q93009: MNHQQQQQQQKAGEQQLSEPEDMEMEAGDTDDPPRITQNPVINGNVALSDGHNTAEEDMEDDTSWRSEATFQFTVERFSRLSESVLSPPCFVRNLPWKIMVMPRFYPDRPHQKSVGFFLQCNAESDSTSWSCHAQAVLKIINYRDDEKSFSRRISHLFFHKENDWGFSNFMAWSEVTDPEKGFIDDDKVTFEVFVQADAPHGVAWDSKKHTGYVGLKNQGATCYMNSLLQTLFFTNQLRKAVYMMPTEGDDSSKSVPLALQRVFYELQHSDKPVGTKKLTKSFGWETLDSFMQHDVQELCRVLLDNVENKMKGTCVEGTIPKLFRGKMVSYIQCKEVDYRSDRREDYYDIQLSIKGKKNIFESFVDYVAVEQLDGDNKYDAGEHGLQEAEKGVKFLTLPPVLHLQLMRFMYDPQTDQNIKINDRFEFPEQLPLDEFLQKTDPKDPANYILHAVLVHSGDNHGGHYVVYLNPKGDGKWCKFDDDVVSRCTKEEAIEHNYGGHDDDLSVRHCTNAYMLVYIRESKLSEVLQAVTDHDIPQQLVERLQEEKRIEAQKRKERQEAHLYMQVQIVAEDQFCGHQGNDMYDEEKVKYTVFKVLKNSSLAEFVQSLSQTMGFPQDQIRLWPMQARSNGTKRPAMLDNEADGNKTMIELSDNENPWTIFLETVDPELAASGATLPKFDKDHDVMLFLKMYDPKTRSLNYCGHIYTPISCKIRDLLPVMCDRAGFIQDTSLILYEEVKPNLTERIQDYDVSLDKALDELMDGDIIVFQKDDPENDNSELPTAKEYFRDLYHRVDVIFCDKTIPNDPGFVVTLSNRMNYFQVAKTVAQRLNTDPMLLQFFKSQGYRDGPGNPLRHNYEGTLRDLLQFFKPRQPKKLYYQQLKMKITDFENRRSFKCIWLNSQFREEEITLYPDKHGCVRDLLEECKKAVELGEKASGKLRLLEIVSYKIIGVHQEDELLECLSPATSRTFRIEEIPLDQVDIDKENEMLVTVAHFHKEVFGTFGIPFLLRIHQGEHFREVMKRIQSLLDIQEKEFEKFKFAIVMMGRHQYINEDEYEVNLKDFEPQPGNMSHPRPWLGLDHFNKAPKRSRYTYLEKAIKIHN

Biological target: T1, Pol ι (bait of the silver stain / mass spectrometry experiment) (UniProt Q9UNA4)
T1 sequence: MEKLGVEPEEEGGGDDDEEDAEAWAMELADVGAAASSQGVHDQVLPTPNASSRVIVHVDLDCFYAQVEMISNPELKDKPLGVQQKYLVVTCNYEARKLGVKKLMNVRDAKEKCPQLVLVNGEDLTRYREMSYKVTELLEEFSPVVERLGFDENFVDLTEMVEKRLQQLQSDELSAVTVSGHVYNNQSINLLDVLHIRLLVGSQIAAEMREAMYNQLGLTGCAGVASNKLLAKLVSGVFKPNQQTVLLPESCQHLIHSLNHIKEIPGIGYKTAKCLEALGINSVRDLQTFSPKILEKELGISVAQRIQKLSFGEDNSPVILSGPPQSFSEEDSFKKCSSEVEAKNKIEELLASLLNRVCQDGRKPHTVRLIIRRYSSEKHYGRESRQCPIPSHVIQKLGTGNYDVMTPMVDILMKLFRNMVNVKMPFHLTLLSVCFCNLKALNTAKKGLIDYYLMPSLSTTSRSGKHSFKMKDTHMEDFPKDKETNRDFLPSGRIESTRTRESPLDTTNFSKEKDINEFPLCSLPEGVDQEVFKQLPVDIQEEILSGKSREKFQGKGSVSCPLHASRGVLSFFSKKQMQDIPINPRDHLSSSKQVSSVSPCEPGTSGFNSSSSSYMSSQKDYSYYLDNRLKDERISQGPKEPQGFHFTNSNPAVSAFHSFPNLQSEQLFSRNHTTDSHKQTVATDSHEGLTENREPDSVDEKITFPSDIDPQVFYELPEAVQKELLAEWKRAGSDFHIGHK
Experiment: affinity purification with mass spectrometry; proteins bound to Pol ι separated by SDS-PAGE, silver-stained, analysed by mass spectrometry; bait construct and cells not stated

binding: binds
Substance: USP7 (found by mass spectrometry among Pol ι bound proteins) (from UniProt Q93009 1-1102) (enzyme)

These are yes or no findings as the source states them, for the method shown. In cells and extracts the contact can be indirect. Here binding means that the protein was enriched with, or labelled near, the bait; the list need not be complete.
